For 37 targets, log2 fold change results are on record in the supplement of paper PMC12819154, “High-throughput peptide-centric local stability assay extends protein–ligand identification to membrane proteins, tissues and bacteria” (Nature Structural & Molecular Biology, 2025).

Protein sequences, listed by entry. Tags and fused reporters are not part of them. Lines headed by an entry give the natural chain unless they say otherwise; changes in a name come on top.
UniProt Q7RTN6: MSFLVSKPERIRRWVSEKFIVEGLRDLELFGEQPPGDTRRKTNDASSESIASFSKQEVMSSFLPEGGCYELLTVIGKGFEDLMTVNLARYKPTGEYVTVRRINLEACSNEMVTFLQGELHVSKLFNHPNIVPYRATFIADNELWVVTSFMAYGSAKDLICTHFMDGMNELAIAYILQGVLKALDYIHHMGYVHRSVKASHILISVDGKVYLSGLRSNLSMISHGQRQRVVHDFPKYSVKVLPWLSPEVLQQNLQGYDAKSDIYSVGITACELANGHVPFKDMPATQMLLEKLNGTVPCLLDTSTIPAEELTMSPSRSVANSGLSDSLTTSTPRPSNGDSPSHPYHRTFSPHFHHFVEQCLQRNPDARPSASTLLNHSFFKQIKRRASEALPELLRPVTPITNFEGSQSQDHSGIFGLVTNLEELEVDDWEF
UniProt Q86UT8: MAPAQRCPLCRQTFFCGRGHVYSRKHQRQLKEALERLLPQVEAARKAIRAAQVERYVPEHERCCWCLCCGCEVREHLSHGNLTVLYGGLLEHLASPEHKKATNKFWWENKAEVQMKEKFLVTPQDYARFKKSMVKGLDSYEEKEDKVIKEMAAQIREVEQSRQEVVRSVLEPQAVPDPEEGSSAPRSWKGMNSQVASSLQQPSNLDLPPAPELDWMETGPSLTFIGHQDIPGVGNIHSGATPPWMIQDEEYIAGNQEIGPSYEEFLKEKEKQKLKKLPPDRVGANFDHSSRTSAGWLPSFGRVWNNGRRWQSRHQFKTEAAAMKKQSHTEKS
UniProt Q7L590: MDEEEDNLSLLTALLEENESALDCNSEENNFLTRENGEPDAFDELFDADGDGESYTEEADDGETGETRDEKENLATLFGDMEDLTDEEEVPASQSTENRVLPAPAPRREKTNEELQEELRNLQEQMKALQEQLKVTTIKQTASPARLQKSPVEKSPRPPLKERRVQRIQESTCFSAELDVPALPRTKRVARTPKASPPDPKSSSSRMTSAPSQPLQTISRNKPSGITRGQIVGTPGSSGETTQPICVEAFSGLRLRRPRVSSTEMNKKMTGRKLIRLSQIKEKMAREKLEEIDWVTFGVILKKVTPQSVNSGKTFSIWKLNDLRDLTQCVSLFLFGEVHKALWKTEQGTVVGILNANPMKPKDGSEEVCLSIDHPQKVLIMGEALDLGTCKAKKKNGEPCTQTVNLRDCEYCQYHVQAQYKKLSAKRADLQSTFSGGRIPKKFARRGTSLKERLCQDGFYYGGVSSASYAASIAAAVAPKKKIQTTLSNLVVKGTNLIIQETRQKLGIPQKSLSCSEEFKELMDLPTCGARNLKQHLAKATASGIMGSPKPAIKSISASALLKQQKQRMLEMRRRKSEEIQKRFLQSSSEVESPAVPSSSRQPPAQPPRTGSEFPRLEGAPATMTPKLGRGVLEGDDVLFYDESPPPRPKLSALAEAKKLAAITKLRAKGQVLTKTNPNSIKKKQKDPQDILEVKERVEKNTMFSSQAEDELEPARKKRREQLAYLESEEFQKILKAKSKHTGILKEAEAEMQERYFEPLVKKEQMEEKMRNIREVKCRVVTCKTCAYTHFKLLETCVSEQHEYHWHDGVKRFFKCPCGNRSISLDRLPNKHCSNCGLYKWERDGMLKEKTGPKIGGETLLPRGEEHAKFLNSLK
UniProt Q86UY5: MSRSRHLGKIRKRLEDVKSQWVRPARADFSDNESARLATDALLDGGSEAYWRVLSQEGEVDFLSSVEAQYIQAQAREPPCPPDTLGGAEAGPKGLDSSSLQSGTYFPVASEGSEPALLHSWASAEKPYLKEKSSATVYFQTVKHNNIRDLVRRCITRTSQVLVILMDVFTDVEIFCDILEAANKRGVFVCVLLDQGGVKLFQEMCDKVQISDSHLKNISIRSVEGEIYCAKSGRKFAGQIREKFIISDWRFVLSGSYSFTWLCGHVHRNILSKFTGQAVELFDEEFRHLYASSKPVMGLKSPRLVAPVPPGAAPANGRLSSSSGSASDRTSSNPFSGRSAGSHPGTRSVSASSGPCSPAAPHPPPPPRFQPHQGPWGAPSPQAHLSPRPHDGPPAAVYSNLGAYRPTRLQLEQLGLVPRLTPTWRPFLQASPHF
UniProt Q7L3V2: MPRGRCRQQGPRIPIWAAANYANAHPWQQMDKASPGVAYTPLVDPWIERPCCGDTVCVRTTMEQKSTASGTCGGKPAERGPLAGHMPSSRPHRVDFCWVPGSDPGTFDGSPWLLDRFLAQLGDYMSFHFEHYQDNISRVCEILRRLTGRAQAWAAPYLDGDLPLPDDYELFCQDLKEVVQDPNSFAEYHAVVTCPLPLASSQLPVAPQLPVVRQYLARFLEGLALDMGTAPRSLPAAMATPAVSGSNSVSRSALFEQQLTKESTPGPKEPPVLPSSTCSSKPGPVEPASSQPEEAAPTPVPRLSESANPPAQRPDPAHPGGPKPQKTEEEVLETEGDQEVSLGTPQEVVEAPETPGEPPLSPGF
UniProt Q6ZSS7: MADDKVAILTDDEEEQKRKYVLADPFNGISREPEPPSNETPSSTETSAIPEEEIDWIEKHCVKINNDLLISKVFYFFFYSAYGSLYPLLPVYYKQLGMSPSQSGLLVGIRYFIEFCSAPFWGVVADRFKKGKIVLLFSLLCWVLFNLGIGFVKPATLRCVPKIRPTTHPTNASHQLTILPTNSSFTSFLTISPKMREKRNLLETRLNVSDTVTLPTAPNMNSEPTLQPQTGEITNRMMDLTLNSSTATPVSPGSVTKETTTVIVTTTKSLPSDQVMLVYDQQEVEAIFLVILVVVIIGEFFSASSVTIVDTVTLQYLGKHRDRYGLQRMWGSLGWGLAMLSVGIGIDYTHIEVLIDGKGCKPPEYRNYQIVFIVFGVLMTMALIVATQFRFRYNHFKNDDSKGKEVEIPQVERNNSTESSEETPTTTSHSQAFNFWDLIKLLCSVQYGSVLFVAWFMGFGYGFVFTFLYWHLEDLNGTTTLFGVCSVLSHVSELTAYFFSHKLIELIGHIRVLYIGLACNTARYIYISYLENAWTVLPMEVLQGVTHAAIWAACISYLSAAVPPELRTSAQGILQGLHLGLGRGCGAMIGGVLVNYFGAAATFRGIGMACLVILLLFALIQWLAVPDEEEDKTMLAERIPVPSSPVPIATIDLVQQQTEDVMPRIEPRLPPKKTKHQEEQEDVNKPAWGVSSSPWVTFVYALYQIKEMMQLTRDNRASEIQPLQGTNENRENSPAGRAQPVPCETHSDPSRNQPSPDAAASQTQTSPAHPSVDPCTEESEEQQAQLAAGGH
UniProt Q86UL3: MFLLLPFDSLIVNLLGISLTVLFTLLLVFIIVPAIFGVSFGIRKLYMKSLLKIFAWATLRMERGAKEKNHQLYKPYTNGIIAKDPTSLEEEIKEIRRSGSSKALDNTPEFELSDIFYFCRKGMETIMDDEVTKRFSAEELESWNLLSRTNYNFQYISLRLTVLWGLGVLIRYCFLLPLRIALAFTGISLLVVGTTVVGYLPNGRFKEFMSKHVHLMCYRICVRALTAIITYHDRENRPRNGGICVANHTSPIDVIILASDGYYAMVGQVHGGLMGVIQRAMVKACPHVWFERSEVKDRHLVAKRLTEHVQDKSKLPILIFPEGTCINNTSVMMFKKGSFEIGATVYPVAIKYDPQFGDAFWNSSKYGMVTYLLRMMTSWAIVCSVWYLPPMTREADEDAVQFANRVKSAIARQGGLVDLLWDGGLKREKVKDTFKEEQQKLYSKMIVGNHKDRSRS
UniProt Q6ZN17: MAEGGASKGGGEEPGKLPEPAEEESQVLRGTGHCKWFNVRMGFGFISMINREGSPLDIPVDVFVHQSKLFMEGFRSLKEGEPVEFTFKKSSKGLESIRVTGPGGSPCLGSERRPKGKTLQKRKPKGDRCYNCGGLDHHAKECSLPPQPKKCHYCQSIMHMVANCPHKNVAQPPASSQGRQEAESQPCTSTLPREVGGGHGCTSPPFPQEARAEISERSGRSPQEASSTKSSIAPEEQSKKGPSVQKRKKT
UniProt Q7Z7K0: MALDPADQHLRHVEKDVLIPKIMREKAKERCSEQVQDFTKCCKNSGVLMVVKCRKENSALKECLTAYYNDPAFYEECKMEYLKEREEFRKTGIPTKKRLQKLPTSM
UniProt Q70EK9: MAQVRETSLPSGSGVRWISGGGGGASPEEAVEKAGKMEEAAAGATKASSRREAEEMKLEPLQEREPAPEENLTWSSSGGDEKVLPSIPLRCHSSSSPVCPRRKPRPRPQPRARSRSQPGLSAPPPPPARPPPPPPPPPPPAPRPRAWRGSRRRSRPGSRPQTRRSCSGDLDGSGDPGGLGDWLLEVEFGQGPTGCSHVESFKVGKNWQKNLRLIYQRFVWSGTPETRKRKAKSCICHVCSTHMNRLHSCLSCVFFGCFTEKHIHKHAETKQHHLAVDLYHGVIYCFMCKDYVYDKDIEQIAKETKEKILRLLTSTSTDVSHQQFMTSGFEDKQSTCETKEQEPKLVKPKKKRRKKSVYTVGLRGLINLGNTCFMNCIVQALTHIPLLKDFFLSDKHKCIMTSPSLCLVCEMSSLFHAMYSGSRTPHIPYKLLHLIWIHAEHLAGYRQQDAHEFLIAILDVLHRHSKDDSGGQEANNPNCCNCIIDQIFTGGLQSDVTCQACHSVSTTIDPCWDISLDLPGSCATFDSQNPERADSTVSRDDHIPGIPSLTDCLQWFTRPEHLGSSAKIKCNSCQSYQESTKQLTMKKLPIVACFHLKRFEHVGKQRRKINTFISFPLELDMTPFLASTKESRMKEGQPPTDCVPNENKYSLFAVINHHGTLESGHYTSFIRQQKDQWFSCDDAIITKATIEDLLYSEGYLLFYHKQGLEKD
UniProt Q7Z5L2: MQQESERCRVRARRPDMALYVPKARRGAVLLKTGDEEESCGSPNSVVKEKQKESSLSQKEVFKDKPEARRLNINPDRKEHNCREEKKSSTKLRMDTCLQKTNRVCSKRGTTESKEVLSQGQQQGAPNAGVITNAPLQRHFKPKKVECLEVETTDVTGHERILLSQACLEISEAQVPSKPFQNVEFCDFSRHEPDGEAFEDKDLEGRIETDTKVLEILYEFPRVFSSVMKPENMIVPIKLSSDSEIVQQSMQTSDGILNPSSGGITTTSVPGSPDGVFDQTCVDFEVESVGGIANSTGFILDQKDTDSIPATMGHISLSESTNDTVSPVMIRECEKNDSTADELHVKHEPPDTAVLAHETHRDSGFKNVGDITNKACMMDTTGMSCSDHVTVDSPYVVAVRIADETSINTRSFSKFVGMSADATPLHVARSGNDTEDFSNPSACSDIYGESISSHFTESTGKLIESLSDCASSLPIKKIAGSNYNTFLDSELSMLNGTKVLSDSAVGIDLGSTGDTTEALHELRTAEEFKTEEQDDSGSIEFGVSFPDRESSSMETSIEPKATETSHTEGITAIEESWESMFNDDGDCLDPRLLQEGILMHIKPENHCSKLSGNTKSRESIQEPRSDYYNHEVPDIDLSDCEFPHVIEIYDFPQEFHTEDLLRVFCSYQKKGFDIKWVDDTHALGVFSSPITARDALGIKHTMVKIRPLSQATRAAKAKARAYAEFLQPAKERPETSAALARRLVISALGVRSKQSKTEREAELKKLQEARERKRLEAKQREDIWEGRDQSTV
UniProt Q7LDG7: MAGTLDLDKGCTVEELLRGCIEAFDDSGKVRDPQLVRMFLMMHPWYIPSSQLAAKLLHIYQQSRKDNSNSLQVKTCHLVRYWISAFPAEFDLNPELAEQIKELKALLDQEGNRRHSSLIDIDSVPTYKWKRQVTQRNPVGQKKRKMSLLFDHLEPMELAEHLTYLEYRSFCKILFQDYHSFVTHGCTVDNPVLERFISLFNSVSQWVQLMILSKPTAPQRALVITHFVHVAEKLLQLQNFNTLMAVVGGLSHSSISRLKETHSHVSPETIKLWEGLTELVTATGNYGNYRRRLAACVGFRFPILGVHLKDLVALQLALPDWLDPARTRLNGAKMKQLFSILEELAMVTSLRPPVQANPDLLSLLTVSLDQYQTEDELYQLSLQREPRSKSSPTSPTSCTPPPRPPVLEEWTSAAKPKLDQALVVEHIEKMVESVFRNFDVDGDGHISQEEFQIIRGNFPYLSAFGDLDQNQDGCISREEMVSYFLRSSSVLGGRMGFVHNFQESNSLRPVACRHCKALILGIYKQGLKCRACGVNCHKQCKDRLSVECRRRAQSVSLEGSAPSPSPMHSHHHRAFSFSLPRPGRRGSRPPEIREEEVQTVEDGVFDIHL
UniProt Q6ZSR9: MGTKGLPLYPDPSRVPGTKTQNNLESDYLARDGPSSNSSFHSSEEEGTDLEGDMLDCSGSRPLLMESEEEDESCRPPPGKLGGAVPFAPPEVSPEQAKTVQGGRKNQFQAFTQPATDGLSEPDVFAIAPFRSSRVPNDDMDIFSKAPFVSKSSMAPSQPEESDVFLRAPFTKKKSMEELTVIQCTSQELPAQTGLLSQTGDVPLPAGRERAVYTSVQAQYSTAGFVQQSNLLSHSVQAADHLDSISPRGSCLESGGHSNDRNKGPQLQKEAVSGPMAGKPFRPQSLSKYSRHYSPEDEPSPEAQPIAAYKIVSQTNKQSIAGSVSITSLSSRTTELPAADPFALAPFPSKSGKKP

This is one part of the list. Small differences around the control level are noise.

Compound in the test: CN[C@@H]1C[C@H]2O[C@@](C)([C@@H]1OC)n1c3ccccc3c3c4c(c5c6ccccc6n2c5c31)C(=O)NC4 [staurosporine]
The test can be described thus: log2 fold change of tryptic peptide abundance, ligand vs vehicle (limited proteolysis) (log2 ratio); higher = more trypsin-susceptible (destabilized). The note with it: ligand concentration: 20 uM; sample: K562 cleared lysate; digestion: 4 min, 22 C (HT-PELSA RT4min, Orbitrap Astral).
Take “SETX (peptide sequence: KSSKLCTCTEPIR, peptide start residue: 1222) (UniProt Q7Z333)”: the log2 fold change stood at 1.05. On to “STRADA (peptide sequence: SNLSMISHGQR, peptide start residue: 216) (UniProt Q7RTN6)”, for which the log2 fold change was -0.311. The value for “UniProt Q6ZN08 (peptide sequence: SSNLTTHK, peptide start residue: 278)” was 0.515; that for “AEBP2 (peptide sequence: HVPTHFSQQNSSK, peptide start residue: 348) (UniProt Q6ZN18)” was -0.818; that for “UniProt Q86UT8 (peptide sequence: TSAGWLPSFGR, peptide start residue: 292)” was -0.263. For the target “UniProt Q70EK8 (peptide sequence: ASAQIISSSK, peptide start residue: 527)”, the log2 fold change is -0.14. The value for “PARS2 (peptide sequence: QLPFLLYQVTRK, peptide start residue: 176) (UniProt Q7L3T8)” was -0.639. Consider “C1orf122 (peptide sequence: PGAPPQPAVSAR, peptide start residue: 85) (UniProt Q6ZSJ8)”, for which the log2 fold change worked out at 0.125. Regarding “C11orf96 (peptide sequence: SFLQSLECLRR, peptide start residue: 395) (UniProt Q7Z7L8)”, the log2 fold change is -0.148. For “MCM10 (peptide sequence: KKIQTTLSNLVVK, peptide start residue: 481) (UniProt Q7L590)” the value was -1.34; for “FAM83A (peptide sequence: FQPHQGPWGAPSPQAHLSPR, peptide start residue: 369) (UniProt Q86UY5)”, 0.671; for “ZBTB33 (peptide sequence: IITLDTATEIEGLSTGCK, peptide start residue: 415) (UniProt Q86T24)”, 0.209. Regarding “VPS36 (peptide sequence: AVGIVGIER, peptide start residue: 153) (UniProt Q86VN1)”, the log2 fold change is -0.106. For “TRPT1 (peptide sequence: KPLSLAGDEETECQSSPK, peptide start residue: 225) (UniProt Q86TN4)” the value was 0.317; for “RTL10 (peptide sequence: STASGTCGGKPAER, peptide start residue: 66) (UniProt Q7L3V2)”, -0.398; for “MRPL55 (peptide sequence: MLAMPIDLDTLSPEER, peptide start residue: 74) (UniProt Q7Z7F7)”, 0.312. On to “MFSD6 (peptide sequence: AQPVPCETHSDPSR, peptide start residue: 738) (UniProt Q6ZSS7)”, for which the log2 fold change is -0.205.

“GPAT4 (peptide sequence: DPTSLEEEIK, peptide start residue: 84) (UniProt Q86UL3)”: the log2 fold change was -0.383. For “LIN28B (peptide sequence: EGEPVEFTFKK, peptide start residue: 79) (UniProt Q6ZN17)” the value was -0.111; for “UniProt Q7Z3E2 (peptide sequence: LLSLNTDKTLCQPNEHNNR, peptide start residue: 44)”, 0.645. As to “PNMA8A (peptide sequence: AETPNNWNATEDQHEPTKPLVR, peptide start residue: 212) (UniProt Q86V59)”, the log2 fold change came out at 0.37.

Take “CMC1 (peptide sequence: CSEQVQDFTK, peptide start residue: 31) (UniProt Q7Z7K0)”: the log2 fold change turned out to be 0.461. For “UniProt Q7Z624 (peptide sequence: ASLVDAIKR, peptide start residue: 241)” the value was 0.492.

“PHLDB2 (peptide sequence: LREQEMER, peptide start residue: 601) (UniProt Q86SQ0)”: the log2 fold change was determined as 0.257.

For the target “HUWE1 (peptide sequence: EYNLEQQRR, peptide start residue: 3647) (UniProt Q7Z6Z7)”, the log2 fold change was found to be 1.32. The value for “TXNDC2 (peptide sequence: ASVKPSQPK, peptide start residue: 167) (UniProt Q86VQ3)” was -0.317; that for “CNTRL (peptide sequence: QTEGTLHSLRR, peptide start residue: 2269) (UniProt Q7Z7A1)” was 0.569; that for “UniProt Q70EK9 (peptide sequence: KLPIVACFHLK, peptide start residue: 400)” was 0.146. In the case of “UniProt Q86T03 (peptide sequence: CPCNCLLICK, peptide start residue: 99)”, the log2 fold change is -0.327. For “ADAT2 (peptide sequence: IPLVVYGCQNER, peptide start residue: 119) (UniProt Q7Z6V5)” the value was -0.179; for “ZFYVE16 (peptide sequence: SLDLKDNDVIQDSSSALHVSSK, peptide start residue: 348) (UniProt Q7Z3T8)”, -0.368.

“MACC1 (peptide sequence: EDPFLFCR, peptide start residue: 98) (UniProt Q6ZN28)”: the log2 fold change is -0.209.

“UniProt Q7Z5L2 (peptide sequence: VLEILYEFPR, peptide start residue: 213)”: the log2 fold change was -0.189. The value for “RASGRP2 (peptide sequence: FPILGVHLK, peptide start residue: 301) (UniProt Q7LDG7)” was 0.532; that for “MOB3B (peptide sequence: TCPVMSGGPK, peptide start residue: 86) (UniProt Q86TA1)” was 0.17. For “UniProt Q86UX2 (peptide sequence: SVSLIVFLTDGKPTVGETHTLK, peptide start residue: 397)” the value was -0.608; for “UniProt Q6ZSR9 (peptide sequence: GLPLYPDPSRVPGTK, peptide start residue: 5)”, 0.0892.
